Laboratory results: US20120141505A1 (published 2012)
No constants are given. Whether binding was seen depends on the method and setting. In cells and extracts the contact can be indirect. Some entries that bind do so weakly or less than the wild type. For part of these data: Where a sequence is shown, tags or fusion partners need not be part of it.

Chains of the proteins cited; added tags and fusions are not shown. Lines headed by an entry give the natural chain unless they say otherwise; changes in a name come on top.
UniProt P15391: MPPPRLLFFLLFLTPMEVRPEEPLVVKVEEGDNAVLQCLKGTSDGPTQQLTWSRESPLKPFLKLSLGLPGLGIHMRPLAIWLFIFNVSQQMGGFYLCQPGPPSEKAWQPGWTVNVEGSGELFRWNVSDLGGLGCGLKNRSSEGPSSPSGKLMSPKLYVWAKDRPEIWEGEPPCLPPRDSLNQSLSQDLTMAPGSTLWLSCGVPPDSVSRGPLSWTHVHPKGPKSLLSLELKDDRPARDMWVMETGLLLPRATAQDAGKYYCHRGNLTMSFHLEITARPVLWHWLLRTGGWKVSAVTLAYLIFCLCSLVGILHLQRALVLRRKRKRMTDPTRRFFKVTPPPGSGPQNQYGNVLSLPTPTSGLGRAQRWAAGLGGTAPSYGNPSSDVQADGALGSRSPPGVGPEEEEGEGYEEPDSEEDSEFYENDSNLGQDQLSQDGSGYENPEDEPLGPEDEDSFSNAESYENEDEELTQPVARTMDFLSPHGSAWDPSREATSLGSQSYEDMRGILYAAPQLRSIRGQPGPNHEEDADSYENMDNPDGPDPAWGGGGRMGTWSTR

B1: purified soluble recombinant human CD19-L protein (6xHis-tagged, baculovirus/Sf21) (ligand, not shown: small tags and cut ends)
chain: MYMSMTEPSQDYVPASQSYPGPSLESEDFNIPPITPPSLQDHSLVHLNEVESGYHSLCHPMNHNGLLPFHPQNMDLPEITVSNMLGQDGTLLSNSISVMPDIRNPEGTQYSSHPQMAAMRPRGQPAQIRQQPGMMPHGQLTTINQSQLSAQLGLNMGGSNVPHNSPSPPGSKSATPSPSSSVHEDEGDDTSKINGGEKRPASDMGKKPKTPKKKKKKDPNEPQKPVSAYALFFRDTQAAIKGQNPNATFGEVSKIVASMWDGLGEEQKQVYKKKTEAAKKEYLKQLAAYRASLVSKSYSEPVDVKTSQPPQLINSKPSVFHGPSQAHSALYLSSHYHQQPGMNPHLTAMHPSLPRNIAPKPNNQMQVTVSIANMAVSPPPPLQISPPLHQHLNMQQHQPLTMQQPLGNQLPMQVQSALHSPTMQQGFTLQPDYQTIINPTSTAAQVVTQAMEYVRSGCRNPPPQPVDWNNDYCSSGGMQRDKALYLT
B2: native CD19-L from human lymphoid cell lines (MOLT-3, JURKAT, NALM-6, BCL-1 lysates) (ligand)
chain: MYMSMTEPSQDYVPASQSYPGPSLESEDFNIPPITPPSLQDHSLVHLNEVESGYHSLCHPMNHNGLLPFHPQNMDLPEITVSNMLGQDGTLLSNSISVMPDIRNPEGTQYSSHPQMAAMRPRGQPAQIRQQPGMMPHGQLTTINQSQLSAQLGLNMGGSNVPHNSPSPPGSKSATPSPSSSVHEDEGDDTSKINGGEKRPASDMGKKPKTPKKKKKKDPNEPQKPVSAYALFFRDTQAAIKGQNPNATFGEVSKIVASMWDGLGEEQKQVYKKKTEAAKKEYLKQLAAYRASLVSKSYSEPVDVKTSQPPQLINSKPSVFHGPSQAHSALYLSSHYHQQPGMNPHLTAMHPSLPRNIAPKPNNQMQVTVSIANMAVSPPPPLQISPPLHQHLNMQQHQPLTMQQPLGNQLPMQVQSALHSPTMQQGFTLQPDYQTIINPTSTAAQVVTQAMEYVRSGCRNPPPQPVDWNNDYCSSGGMQRDKALYLT

Tests used:
[1] = target: 95-kDa native CD19 co-receptor protein in lysates of CD19+ human B-lineage lymphoid cell lines (BCL-1, NALM-6, DAUDI, RAMOS) (human) (UniProt P15391); assay: pull-down from cell lysates with CD19-L on nickel beads, anti-CD19 immunoblot
[2] = target: maltose-binding protein (MBP)-CD19ECD fusion protein (E. coli; human) (UniProt P15391); assay: figure legend covering pull-downs, flow cytometry and microscopy
[3] = target: maltose-binding protein (MBP)-CD19ECD fusion protein (E. coli; human) (UniProt P15391); assay: pull-down from cell lysates with MBP-CD19ECD on amylose beads, anti-CD19-L immunoblot

| Binder | binding [1] | binding [2] | binding [3] |
| --- | --- | --- | --- |
| B1 | binds | – | – |
| B2 | – | binds | binds |
